Assay results from patent US20060106098A1, “Andrographolide and its derivatives as TNF-alpha antagonists” (Advanced Gene Technology, Corp., priority 2004, published 2006).
“Also recorded” adds a separate entry of the source. At least one compound was matched to its structure with a doubt left.

Test system: collagen-induced arthritis
Test: Anti-inflammatory effect on rats with collagen-induced arthritis model
Format: in vivo, SD rats
Conditions: rat with CIA, treated IP

## C[C@@H]1C[C@H]2[C@@H]3CCC4=CC(=O)C=C[C@]4(C)[C@@]3(F)[C@@H](O)C[C@]2(C)[C@@]1(O)C(=O)CO [dexamethasone, Dexamethasone, reference compound]
  histopathological slice of joint: Proliferation of synovial lining cell and infiltration of erythrocytes and some lymphocytes were observed; also recorded: Periarticular edema and infiltration of lymphocytes were found
